The target in this test is T1, Interferon regulatory factor 1 (IRF-1) (human (endogenous in hTLR7-HEK293)) (UniProt P10914).
T1 sequence: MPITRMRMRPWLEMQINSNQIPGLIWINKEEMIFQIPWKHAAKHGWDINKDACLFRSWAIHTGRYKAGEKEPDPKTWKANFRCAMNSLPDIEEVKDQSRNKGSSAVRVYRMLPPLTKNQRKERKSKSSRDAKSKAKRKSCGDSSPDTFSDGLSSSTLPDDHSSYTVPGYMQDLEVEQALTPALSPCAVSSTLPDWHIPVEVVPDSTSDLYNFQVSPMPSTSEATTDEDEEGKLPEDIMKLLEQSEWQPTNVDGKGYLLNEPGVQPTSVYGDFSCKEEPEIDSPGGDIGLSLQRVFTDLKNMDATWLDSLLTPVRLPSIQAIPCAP
Briefly: co-IP; lysates of hTLR7-HEK293 cells, untreated or stimulated with R848 (10 µM, 2 h), with or without PP2 (20 µM, 30 min) pretreatment; precipitated overnight at 4°C with anti-IRF-1 crosslinked to Protein G Dynabeads; immunoblot. Background: A western blot detects proteins with antibodies after separation by electrophoresis.

By UniProt entry, the sequences of proteins in these tests, tags left out.
UniProt Q13489: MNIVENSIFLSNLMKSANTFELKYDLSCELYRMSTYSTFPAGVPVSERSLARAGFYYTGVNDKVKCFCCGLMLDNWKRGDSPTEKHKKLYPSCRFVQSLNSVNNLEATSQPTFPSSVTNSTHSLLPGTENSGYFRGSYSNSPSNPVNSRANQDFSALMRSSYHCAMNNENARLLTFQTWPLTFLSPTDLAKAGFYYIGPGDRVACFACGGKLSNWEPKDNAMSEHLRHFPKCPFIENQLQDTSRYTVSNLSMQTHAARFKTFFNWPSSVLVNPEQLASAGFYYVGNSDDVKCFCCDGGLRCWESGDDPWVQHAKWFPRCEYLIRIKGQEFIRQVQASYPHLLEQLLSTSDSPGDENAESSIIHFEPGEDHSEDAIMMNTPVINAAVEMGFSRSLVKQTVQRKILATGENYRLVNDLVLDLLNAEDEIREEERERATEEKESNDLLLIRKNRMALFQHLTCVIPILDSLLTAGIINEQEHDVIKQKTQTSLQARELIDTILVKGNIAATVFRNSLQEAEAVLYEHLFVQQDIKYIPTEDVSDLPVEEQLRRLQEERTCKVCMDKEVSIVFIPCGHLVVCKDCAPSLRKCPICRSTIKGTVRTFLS

One substance from article PMC5837968 can be followed below.

No constants are given. Whether binding was seen depends on the method and setting. In cells and extracts the contact can be indirect. Some binding calls cover weakened binding; strength is not graded here.

As for “cIAP2 (from UniProt Q13489 1-604) (enzyme)”, the binding result is reported as “binds”.
